Measurements: the supplement of paper PMC6411743
± gives the standard deviation of the averaged measurements. The entries are a selection whose mix differs from that of the whole data set.

Protein sequences, listed by entry. Tags and fused reporters are not part of them. Lines headed by an entry give the natural chain unless they say otherwise; changes in a name come on top.
UniProt Q9BVT8: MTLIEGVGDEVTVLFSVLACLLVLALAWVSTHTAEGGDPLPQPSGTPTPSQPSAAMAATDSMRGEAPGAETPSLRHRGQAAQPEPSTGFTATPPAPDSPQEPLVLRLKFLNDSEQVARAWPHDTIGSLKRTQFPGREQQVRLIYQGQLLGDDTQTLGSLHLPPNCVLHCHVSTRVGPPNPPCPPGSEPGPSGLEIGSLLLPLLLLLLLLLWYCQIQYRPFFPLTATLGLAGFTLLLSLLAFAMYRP
UniProt P84101: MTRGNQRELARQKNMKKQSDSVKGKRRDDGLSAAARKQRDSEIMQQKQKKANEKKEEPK
UniProt Q16595: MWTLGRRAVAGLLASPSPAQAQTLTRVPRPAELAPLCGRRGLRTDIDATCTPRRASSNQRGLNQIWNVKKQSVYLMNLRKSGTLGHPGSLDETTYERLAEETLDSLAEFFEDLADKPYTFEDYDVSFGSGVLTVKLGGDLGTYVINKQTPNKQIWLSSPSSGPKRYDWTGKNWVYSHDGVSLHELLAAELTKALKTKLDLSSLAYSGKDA
UniProt Q8N8S7: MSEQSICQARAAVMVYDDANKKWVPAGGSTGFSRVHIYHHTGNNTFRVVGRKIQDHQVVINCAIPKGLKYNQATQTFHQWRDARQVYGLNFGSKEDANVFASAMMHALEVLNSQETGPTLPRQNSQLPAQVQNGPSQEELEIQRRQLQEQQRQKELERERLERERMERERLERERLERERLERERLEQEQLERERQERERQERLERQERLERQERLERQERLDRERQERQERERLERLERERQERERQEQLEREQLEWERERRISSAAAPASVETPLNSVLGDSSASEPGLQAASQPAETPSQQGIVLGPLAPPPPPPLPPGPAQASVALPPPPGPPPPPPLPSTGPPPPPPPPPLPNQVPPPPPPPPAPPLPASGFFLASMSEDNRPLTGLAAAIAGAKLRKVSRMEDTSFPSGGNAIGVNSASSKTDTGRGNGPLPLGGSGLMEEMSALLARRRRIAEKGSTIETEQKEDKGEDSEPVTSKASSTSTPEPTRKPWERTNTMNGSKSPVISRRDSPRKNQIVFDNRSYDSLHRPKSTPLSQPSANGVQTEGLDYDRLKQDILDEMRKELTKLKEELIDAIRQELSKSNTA
UniProt P55212: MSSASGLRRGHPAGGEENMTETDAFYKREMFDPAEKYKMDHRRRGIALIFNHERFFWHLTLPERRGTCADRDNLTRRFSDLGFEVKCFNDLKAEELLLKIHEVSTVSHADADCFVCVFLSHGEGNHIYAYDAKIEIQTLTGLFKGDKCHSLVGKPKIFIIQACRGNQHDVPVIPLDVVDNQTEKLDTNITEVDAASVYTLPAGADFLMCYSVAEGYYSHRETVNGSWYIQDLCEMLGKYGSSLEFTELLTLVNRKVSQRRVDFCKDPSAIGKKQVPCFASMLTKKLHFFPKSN
UniProt Q5W0Z9: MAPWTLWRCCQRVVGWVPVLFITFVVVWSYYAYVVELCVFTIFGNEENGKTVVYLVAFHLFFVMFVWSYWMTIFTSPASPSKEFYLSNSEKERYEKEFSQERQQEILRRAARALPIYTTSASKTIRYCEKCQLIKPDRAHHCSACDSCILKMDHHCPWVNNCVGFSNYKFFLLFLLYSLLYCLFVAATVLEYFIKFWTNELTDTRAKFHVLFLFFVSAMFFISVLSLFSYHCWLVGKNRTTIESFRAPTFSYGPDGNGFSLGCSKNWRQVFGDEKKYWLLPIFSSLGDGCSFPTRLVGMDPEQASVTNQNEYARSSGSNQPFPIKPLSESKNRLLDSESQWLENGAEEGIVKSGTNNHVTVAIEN
UniProt O75390: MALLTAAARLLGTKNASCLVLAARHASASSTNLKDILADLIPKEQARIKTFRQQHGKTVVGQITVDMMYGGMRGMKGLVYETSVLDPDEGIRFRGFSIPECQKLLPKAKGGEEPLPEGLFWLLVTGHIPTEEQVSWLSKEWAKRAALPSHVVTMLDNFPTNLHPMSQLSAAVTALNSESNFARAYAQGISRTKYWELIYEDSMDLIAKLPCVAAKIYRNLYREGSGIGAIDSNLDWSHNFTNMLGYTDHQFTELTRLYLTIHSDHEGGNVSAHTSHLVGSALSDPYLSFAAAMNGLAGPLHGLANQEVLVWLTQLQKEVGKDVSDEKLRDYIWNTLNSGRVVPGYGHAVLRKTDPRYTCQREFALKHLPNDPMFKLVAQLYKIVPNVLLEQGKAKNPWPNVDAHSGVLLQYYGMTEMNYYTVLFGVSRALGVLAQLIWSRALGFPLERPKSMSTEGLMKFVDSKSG
UniProt Q0PNE2: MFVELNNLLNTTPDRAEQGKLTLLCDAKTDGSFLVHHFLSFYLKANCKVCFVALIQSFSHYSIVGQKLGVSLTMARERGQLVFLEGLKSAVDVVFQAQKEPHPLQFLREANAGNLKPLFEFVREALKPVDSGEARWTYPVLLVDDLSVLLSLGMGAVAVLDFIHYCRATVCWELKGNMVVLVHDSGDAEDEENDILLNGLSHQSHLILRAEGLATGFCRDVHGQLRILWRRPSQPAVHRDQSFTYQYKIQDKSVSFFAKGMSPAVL
UniProt Q969T9: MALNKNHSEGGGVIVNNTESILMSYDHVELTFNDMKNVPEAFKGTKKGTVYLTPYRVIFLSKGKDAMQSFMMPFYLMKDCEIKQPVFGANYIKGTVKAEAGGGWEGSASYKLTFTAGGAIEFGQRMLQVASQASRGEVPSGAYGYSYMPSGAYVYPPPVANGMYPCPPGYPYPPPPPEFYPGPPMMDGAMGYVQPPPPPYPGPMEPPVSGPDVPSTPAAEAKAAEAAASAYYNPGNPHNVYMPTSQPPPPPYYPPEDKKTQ
UniProt Q9P1Y6: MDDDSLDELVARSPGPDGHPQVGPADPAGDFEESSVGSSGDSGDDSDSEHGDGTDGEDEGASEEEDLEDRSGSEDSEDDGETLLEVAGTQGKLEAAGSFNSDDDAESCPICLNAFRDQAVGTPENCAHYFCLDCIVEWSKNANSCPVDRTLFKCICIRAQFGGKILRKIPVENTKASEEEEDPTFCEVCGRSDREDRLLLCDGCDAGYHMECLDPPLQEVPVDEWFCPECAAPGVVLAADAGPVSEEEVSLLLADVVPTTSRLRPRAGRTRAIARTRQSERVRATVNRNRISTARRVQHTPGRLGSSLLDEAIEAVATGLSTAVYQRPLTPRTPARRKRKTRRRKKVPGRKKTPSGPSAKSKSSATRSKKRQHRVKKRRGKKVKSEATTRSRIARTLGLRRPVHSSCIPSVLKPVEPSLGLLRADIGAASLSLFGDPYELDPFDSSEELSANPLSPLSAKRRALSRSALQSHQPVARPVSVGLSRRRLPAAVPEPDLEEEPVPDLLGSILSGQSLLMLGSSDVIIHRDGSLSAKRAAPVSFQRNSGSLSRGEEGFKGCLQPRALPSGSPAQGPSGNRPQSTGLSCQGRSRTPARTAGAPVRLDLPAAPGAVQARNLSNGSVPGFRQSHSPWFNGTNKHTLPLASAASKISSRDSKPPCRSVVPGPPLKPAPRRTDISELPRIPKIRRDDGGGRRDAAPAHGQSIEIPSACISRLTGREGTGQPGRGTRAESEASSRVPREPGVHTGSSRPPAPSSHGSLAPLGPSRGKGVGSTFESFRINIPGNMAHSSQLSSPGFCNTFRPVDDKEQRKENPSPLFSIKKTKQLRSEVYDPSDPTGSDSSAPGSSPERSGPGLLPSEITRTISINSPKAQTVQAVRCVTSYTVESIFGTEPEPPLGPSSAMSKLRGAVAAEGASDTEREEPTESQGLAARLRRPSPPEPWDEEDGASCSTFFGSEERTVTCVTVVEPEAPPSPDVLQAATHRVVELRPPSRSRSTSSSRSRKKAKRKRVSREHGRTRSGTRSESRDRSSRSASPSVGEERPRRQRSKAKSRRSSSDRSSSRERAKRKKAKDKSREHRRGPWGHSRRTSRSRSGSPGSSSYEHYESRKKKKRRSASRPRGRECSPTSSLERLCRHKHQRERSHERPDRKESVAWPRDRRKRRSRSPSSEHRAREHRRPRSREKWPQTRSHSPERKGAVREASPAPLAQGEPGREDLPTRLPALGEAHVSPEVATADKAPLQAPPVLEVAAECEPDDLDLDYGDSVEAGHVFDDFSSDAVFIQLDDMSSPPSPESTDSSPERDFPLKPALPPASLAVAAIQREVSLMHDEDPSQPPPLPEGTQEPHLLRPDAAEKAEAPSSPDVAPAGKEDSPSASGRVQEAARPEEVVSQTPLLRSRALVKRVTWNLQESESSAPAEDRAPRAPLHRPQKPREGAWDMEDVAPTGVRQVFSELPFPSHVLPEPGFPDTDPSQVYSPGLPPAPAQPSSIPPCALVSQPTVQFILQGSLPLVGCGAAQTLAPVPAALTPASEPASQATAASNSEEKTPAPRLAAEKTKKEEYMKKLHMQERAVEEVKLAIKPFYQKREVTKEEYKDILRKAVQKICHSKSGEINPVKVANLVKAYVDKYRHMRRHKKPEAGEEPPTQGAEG
UniProt P13798: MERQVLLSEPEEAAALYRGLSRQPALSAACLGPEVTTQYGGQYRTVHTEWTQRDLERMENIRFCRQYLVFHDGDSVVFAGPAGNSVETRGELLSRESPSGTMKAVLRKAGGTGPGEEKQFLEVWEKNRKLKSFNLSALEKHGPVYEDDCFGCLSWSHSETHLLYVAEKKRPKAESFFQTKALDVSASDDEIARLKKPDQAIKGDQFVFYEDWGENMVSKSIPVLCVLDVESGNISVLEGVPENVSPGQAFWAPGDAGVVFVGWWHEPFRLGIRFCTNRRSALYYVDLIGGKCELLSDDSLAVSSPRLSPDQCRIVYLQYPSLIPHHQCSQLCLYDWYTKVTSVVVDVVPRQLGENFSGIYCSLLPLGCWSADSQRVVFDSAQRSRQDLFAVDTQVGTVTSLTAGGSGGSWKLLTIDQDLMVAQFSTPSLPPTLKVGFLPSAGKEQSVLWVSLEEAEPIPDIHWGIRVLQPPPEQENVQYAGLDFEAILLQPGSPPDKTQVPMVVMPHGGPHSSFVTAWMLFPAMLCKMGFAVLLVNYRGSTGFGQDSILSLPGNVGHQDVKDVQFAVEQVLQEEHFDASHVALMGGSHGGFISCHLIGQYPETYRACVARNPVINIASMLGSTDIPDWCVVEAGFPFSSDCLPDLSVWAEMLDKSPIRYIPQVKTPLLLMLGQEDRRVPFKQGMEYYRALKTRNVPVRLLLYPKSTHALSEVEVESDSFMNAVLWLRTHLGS
UniProt Q7Z4G1, whole entry: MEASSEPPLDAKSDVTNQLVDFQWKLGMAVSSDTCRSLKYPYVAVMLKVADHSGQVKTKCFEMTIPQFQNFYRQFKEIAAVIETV
UniProt Q99501: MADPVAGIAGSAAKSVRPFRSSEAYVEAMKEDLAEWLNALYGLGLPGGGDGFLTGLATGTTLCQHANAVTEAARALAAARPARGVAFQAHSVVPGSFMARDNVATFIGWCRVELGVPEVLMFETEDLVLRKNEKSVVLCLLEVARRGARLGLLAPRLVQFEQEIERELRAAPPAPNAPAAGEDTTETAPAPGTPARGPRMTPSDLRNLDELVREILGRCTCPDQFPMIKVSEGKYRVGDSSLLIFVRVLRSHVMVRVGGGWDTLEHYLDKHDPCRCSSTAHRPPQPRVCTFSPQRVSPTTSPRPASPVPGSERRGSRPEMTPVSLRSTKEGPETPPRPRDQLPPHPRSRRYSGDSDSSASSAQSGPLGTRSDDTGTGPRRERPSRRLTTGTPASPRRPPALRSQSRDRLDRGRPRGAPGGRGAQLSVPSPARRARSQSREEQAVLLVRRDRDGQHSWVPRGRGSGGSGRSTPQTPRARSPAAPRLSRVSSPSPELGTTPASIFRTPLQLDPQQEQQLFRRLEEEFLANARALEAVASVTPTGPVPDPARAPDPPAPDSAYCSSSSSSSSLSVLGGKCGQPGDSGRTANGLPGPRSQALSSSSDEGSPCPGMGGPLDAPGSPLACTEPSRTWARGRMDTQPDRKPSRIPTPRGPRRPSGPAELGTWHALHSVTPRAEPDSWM
UniProt Q9Y6X4: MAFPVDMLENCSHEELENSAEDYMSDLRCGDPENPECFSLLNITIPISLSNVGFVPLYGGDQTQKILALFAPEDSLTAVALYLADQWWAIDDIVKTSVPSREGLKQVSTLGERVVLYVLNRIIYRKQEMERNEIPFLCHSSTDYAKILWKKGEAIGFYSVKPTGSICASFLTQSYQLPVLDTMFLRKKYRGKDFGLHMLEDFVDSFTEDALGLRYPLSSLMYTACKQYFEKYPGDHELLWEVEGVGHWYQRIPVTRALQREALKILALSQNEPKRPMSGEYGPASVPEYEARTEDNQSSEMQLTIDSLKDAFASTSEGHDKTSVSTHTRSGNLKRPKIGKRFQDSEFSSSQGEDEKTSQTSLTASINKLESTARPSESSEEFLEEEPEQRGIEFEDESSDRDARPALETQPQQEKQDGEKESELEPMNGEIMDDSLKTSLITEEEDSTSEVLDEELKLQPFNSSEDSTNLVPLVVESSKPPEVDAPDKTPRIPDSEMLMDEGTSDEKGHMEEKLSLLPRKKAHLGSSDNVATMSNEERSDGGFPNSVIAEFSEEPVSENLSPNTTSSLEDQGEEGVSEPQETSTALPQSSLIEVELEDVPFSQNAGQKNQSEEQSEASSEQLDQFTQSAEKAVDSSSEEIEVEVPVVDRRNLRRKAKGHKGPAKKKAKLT

Compound: Nc1ncnc2c1ncn2[C@@H]1O[C@H](COP(=O)(O)OP(=O)(O)OP(=O)(O)O)[C@@H](O)[C@H]1O [adenosine triphosphate]
Experiment: NP40-soluble protein abundance relative to vehicle (solubility fold change) (ratio); higher = more soluble protein in presence of ATP
Method in brief: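 Jurkat crude lysate (Dounce-homogenised) was treated with eight concentrations from 0.1 to 10 mM for 10 min at room temperature, then 3 min at 37 °C. It was solubilised with 0.8% NP40 and benzonase (60 min, 4 °C) and ultracentrifuged, and the supernatant was TMT-labelled for LC-MS/MS. Intensities were vsn-normalised, and the value is the fold change against the NP40-processed vehicle per replicate, from three independent experiments.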

Target	NP40-soluble protein abundance (concentration: 1mM)	NP40-soluble protein abundance (concentration: 2mM)	NP40-soluble protein abundance (concentration: 4mM)	NP40-soluble protein abundance (concentration: 6mM)	NP40-soluble protein abundance (concentration: 8mM)	NP40-soluble protein abundance (concentration: 10mM)
PGP (UniProt A6NDG6)	0.966 ± 0.029	0.97 ± 0.021	0.943 ± 0.022	0.958 ± 0.048	0.94 ± 0.034	0.947 ± 0.041
D4PHA4 and related entries (UniProt Q86WP2)	0.983 ± 0.19	1.13 ± 0.1	1.07 ± 0.056	1.09 ± 0.11	1.15 ± 0.12	1.11 ± 0.077
C9JCW7 and related entries (UniProt Q9BVT8)	1.09 ± 0.17	0.929 ± 0.019	1.07 ± 0.17	1.03 ± 0.14	1.01 ± 0.11	0.969 ± 0.018
B8ZZY7 and related entries (UniProt P84101)	0.713 ± 0.063	0.698 ± 0.13	0.63 ± 0.022	0.733 ± 0.12	0.579 ± 0.1	0.706 ± 0.1
C9JAX1 and related entries (UniProt Q16595)	0.926 ± 0.091	0.967 ± 0.041	0.953 ± 0.04	0.921 ± 0.059	0.888 ± 0.073	0.862 ± 0.14
A0A0U1RRM6|Q8N8S7 and related entries (UniProt Q8N8S7)	0.972 ± 0.041	0.968 ± 0.022	0.933 ± 0.025	0.971 ± 0.023	0.939 ± 0.05	0.963 ± 0.025
D6RA71 and related entries (UniProt P78317)	0.896 ± 0.14	0.966 ± 0.062	0.944 ± 0.089	0.948 ± 0.061	0.918 ± 0.081	0.904 ± 0.075
D6RHU3 and related entries (UniProt P55212)	0.998 ± 0.095	0.994 ± 0.11	0.989 ± 0.1	0.936 ± 0.13	1 ± 0.058	0.969 ± 0.074
B4DRN8 and related entries (UniProt Q5W0Z9)	1.01 ± 0.025	1.03 ± 0.047	1.02 ± 0.081	1.01 ± 0.11	1 ± 0.095	1 ± 0.046
C9J5X1 and related entries (UniProt P08069)	0.943 ± 0.069	0.973 ± 0.085	1.01 ± 0.12	1.03 ± 0.056	0.951 ± 0.06	0.997 ± 0.1
B4DJV2 and related entries (UniProt O75390)	0.869 ± 0.34	0.934 ± 0.35	0.773 ± 0.24	0.844 ± 0.24	0.825 ± 0.044	0.749 ± 0.12
MEX3A (UniProt A1L020)	1.03 ± 0.15	1.04 ± 0.11	1.06 ± 0.11	1.04 ± 0.084	1.06 ± 0.14	0.985 ± 0.07
UniProt A9UHW6 and related entries	0.99 ± 0.046	0.967 ± 0.02	0.957 ± 0.018	0.951 ± 0.039	0.964 ± 0.049	0.881 ± 0.1
B4DR61 and related entries (UniProt P61619)	1.05 ± 0.2	1.05 ± 0.14	1 ± 0.1	0.937 ± 0.17	1.03 ± 0.097	1.07 ± 0.067
C9IYN7 and related entries (UniProt Q0PNE2)	1.15 ± 0.26	1.04 ± 0.15	1.03 ± 0.23	0.833 ± 0.18	1.12 ± 0.12	1.03 ± 0.082
A0A0J9YXM6|I3L1G2 and related entries (UniProt Q562E7)	1 ± 0.079	0.986 ± 0.11	0.986 ± 0.1	0.962 ± 0.15	0.976 ± 0.19	0.969 ± 0.12
B4DL54 and related entries (UniProt Q8WUH1)	1.02 ± 0.11	1 ± 0.083	0.982 ± 0.062	0.988 ± 0.12	1.02 ± 0.058	0.991 ± 0.052
B7Z1T1 (UniProt O00258)	1.05 ± 0.23	0.965 ± 0.12	0.974 ± 0.072	0.895 ± 0.18	1.01 ± 0.02	1.03 ± 0.042
A2A2G4 and related entries (UniProt Q9Y672)	0.927 ± 0.17	0.96 ± 0.13	0.993 ± 0.15	0.939 ± 0.21	0.899 ± 0.11	0.984 ± 0.032
A9Z1X7 and related entries (UniProt Q8IYB3)	1.38 ± 0.1	1.43 ± 0.095	1.47 ± 0.11	1.56 ± 0.12	1.54 ± 0.099	1.57 ± 0.077
A6NG10 and related entries (UniProt Q969T9)	0.912 ± 0.031	0.957 ± 0.045	0.908 ± 0.026	0.928 ± 0.058	0.894 ± 0.049	0.924 ± 0.012
A0A0J9YWD5|A0A0J9YYB5|B7ZM65 and related entries (UniProt Q9P1Y6)	1.03 ± 0.058	1.09 ± 0.041	1.26 ± 0.046	1.37 ± 0.093	1.33 ± 0.1	1.39 ± 0.1
B9EGA3 and related entries (UniProt Q92925)	1.02 ± 0.011	1.02 ± 0.016	1.04 ± 0.057	1 ± 0.049	1.09 ± 0.065	1.04 ± 0.033
A0A0U1RRH6 (UniProt O94880)	1.07 ± 0.054	1.1 ± 0.039	1.1 ± 0.032	1.2 ± 0.042	1.22 ± 0.016	1.32 ± 0.038
D6RCD0 and related entries (UniProt Q8NBQ5)	0.991 ± 0.099	0.976 ± 0.035	0.997 ± 0.045	0.884 ± 0.11	0.965 ± 0.03	1.03 ± 0.02
C9JNZ0 and related entries (UniProt Q96IW7)	0.996 ± 0.15	1.02 ± 0.081	0.981 ± 0.086	0.926 ± 0.14	1.04 ± 0.15	1 ± 0.14
C9JIF9 and related entries (UniProt P13798)	0.986 ± 0.066	0.95 ± 0.047	0.909 ± 0.053	0.92 ± 0.043	0.964 ± 0.05	0.923 ± 0.054
B0QZ40 and related entries (UniProt Q7Z4G1)	0.903 ± 0.051	0.879 ± 0.017	0.866 ± 0.031	0.924 ± 0.12	0.929 ± 0.079	0.8036 ± 0.0037
A0A5E8 and related entries (UniProt Q99501)	1.05 ± 0.074	1.14 ± 0.072	1.21 ± 0.028	1.23 ± 0.017	1.23 ± 0.063	1.24 ± 0.056
D6RB01 and related entries (UniProt Q9Y6X4)	0.922 ± 0.048	0.894 ± 0.022	0.9183 ± 0.0089	0.9357 ± 0.0011	0.88 ± 0.019	0.901 ± 0.028

Single records, from the list above:
D6RA71 and related entries (UniProt P78317) as listed: NP40-soluble protein abundance (concentration: 1mM): 0.896 ± 0.14; NP40-soluble protein abundance (concentration: 2mM): 0.966 ± 0.062; NP40-soluble protein abundance (concentration: 4mM): 0.944 ± 0.089; NP40-soluble protein abundance (concentration: 6mM): 0.948 ± 0.061; NP40-soluble protein abundance (concentration: 8mM): 0.918 ± 0.081; NP40-soluble protein abundance (concentration: 10mM): 0.904 ± 0.075
C9JNZ0 and related entries (UniProt Q96IW7) as listed: NP40-soluble protein abundance (concentration: 1mM): 0.996 ± 0.15; NP40-soluble protein abundance (concentration: 2mM): 1.02 ± 0.081; NP40-soluble protein abundance (concentration: 4mM): 0.981 ± 0.086; NP40-soluble protein abundance (concentration: 6mM): 0.926 ± 0.14; NP40-soluble protein abundance (concentration: 8mM): 1.04 ± 0.15; NP40-soluble protein abundance (concentration: 10mM): 1 ± 0.14
